Measured values: PMC12233908
Where a chain is given by its changes, count along the chain named. In names and notes the source's numbering stands. Results are given in words; binding and its absence hold for the method and conditions named. Binding seen in cells or lysates may run through a third protein. Some binding calls cover weakened binding; strength is not graded here. For some of these results: Where a sequence is shown, tags or fusion partners need not be part of it. One block for each binder: values may come before it.

Chains of the proteins cited; added tags and fusions are not shown. Residues count along the entry.
UniProt P56818, residues 46-501: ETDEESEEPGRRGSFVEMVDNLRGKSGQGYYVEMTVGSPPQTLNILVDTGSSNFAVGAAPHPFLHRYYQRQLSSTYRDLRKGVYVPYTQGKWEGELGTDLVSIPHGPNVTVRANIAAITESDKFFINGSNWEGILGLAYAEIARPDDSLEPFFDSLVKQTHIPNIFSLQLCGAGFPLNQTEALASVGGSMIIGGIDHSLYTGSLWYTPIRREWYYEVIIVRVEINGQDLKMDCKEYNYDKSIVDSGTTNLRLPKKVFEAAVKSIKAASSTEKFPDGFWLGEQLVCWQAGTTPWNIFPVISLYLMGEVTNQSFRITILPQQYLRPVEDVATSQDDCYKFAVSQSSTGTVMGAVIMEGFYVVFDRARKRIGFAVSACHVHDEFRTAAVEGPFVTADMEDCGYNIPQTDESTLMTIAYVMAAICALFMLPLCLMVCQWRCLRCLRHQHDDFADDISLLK

How the values were obtained:
[1] = molecular target: Myc-BACE1 (UniProt P56818); experiment: co-IP; HEK293T cells co-transfected with tagged constructs; lysis in 20 mM Tris-HCl pH 7.4, 100 mM NaCl, 1 mM EDTA, 0.5% NP-40; anti-Myc or anti-HA antibody 12 h at 4 °C, Dynabeads Protein G; western blot
[2] = molecular target: β-site APP-cleaving enzyme 1 (BACE1), endogenous in mouse brain (mouse (endogenous in brain)) (UniProt P56818); experiment: co-IP; in vivo co-immunoprecipitation from brain lysates of Gnb5F/F and Gnb5-CCKO mice; endogenous proteins

binding [1]: binds
B1: Gnb5 (28-102aa), first WD domain (domain or fragment, UniProt P62881-2 28-102)
chain: EERAKLHDVELHQVAERVEALGQFVMKTRRTLKGHGNKVLCMDWCKDKRRIVSSSQDGKVIVWDSFTTNKEHAVT

binding [1]: binds
B4: HA-Gnb5 (protein, UniProt P62881-2 1-353)
chain: MATDGLHENETLASLKSEAESLKGKLEEERAKLHDVELHQVAERVEALGQFVMKTRRTLKGHGNKVLCMDWCKDKRRIVSSSQDGKVIVWDSFTTNKEHAVTMPCTWVMACAYAPSGCAIACGGLDNKCSVYPLTFDKNENMAAKKKSVAMHTNYLSACSFTNSDMQILTASGDGTCALWDVESGQLLQSFHGHGADVLCLDLAPSETGNTFVSGGCDKKAMVWDMRSGQCVQAFETHESDVNSVRYYPSGDAFASGSDDATCRLYDLRADREVAIYSKESIIFGASSVDFSLSGRLLFAGYNDYTINVWDVLKGSRVSILFGHENRVSTLRVSPDGTAFCSGSWDHTLRVWA

More lines, now with the values behind:

B2: Gnb5 (28-102aa&p.S81L) (domain or fragment, UniProt P62881-2 28-102)
chain: B1 chain with S54L
binding [1]: no binding

B3: G protein subunit β5 (Gnb5), endogenous in mouse brain (protein, UniProt P62881-2 1-353)
chain: B4 chain
binding [2]: binds
